Results reported in article PMC2999533.
Results are given in words; binding and its absence hold for the method and conditions named. In cells and extracts the contact can be indirect. Some entries that bind do so weakly or less than the wild type.

The chains behind the UniProt entries cited, without tags or fusion partners. Where a name states a change or a piece, a line headed by the entry shows the natural chain unless it says otherwise. A line that says so, or that is headed by a name, gives the form on record, which may keep a tag or linker. Residues count along the entry.
UniProt O00571: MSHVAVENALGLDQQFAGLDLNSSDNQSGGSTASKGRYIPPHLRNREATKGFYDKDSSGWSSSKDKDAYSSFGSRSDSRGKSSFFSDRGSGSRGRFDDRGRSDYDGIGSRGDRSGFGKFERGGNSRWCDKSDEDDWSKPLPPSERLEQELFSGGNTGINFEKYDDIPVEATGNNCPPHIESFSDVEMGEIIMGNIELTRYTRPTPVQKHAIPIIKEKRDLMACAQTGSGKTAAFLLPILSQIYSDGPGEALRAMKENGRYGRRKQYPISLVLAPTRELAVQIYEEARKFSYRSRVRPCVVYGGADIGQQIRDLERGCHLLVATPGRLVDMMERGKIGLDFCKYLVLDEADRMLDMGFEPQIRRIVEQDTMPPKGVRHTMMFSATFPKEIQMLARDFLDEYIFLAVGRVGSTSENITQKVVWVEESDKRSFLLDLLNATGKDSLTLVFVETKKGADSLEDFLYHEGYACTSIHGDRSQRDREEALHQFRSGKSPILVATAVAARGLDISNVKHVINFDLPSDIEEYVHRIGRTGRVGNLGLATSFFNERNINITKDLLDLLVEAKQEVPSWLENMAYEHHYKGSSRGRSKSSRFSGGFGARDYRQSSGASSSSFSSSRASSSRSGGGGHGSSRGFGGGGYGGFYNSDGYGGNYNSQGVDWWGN
DDX3 2-3c, C-terminal region of DDX3 (199-662 aa): residues 199-662 of O00571
HA-tagged DDX3 partial fragment, DDX3-HA (225-662): residues 225-662 of O00571
UniProt Q7Z434: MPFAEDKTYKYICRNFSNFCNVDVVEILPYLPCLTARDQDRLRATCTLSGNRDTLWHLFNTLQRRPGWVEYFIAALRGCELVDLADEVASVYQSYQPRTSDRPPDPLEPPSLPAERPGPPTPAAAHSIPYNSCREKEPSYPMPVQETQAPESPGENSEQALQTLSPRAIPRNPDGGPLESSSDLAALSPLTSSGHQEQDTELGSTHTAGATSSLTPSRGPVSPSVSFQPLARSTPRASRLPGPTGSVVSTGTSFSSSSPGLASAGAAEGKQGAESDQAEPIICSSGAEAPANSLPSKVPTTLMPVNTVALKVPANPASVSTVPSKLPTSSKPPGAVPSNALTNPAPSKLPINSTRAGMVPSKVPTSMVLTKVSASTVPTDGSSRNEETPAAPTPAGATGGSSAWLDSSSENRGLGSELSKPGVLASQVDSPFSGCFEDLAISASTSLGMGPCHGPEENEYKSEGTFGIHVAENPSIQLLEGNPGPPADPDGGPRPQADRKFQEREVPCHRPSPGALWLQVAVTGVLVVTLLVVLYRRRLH

What was measured:
Assay in all cases: co-IP; HEK293FT cells co-transfected (400 ng of each plasmid) with HA-DDX3 (whole or fragment) and FLAG-IPS-1, with or without HCV core, for 24 h; lysis buffer 20 mM Tris-HCl pH 7.5, 125 mM NaCl, 1 mM EDTA, 10% glycerol, 1% NP-40; IP with anti-HA (DDX3), blot with anti-FLAG (IPS-1)
[1] = target: DDX3 2-3c, C-terminal region of DDX3 (199-662 aa) (human) (UniProt O00571)
[2] = target: HA-tagged DDX3 partial fragment, DDX3-HA (225-662) (human) (UniProt O00571)
[3] = target: full length DDX3 with C-terminal HA tag (pEF-BOS DDX3-HA) (human) (UniProt O00571)

Measured: binding

FLAG-tagged IPS-1, full length (from UniProt Q7Z434 1-540)
binds: all assays above
